Measured values published in the supplement of paper PMC8728848.
This is one part of the list.

Columns and labels:
Experiment in all cases: glycan array binding signal (z-score within array); higher = stronger binding
Conditions in all cases: glycan notation: IUPAC condensed, linker removed
[1] = target: Neu5Ac(a2-3)Gal(b1-3)GlcNAc(b1-2)Man(a1-3)[Neu5Ac(a2-3)Gal(b1-3)GlcNAc(b1-2)Man(a1-6)]Man(b1-4)GlcNAc(b1-4)GlcNAc
Method in brief: (§1)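 The binding signal is a Z-score computed within each array and averaged over linkers. Arrays of the same protein sequence at different concentrations or buffers were also averaged together. Data originate from 3228 arrays in the Consortium for Functional Glycomics database, kept only where the protein sequence was available.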

[2] = target: Neu5Ac(a2-3)Gal(b1-3)GlcNAc(b1-3)Gal(b1-3)GlcNAc
Method in brief: as §1

[3] = target: Neu5Ac(a2-3)Gal(b1-3)GlcNAc(b1-3)Gal(b1-4)GlcNAc
Method in brief: as §1

[4] = target: Neu5Ac(a2-3)Gal(b1-3)GlcNAc(b1-3)GalNAc
Method in brief: as §1

[5] = target: Neu5Ac(a2-3)Gal(b1-3)GlcNAc(b1-4)Gal(b1-4)Glc
Method in brief: as §1

[6] = target: Neu5Ac(a2-3)Gal(b1-3)GlcNAc(b1-6)GalNAc
Method in brief: as §1

[7] = target: Neu5Ac(a2-3)Gal(b1-3)GlcNAc6S
Method in brief: as §1

[8] = target: Neu5Ac(a2-3)Gal(b1-3)[Fuc(a1-4)]GlcNAc
Method in brief: as §1

[9] = target: Neu5Ac(a2-3)Gal(b1-3)[Fuc(a1-4)]GlcNAc(b1-3)Gal(b1-3)[Fuc(a1-4)]GlcNAc
Method in brief: as §1

[10] = target: Neu5Ac(a2-3)Gal(b1-3)[Fuc(a1-4)]GlcNAc(b1-3)Gal(b1-4)[Fuc(a1-3)]GlcNAc
Method in brief: as §1

[11] = target: Neu5Ac(a2-3)Gal(b1-3)[GlcNAc(b1-6)]GalNAc
Method in brief: as §1

[12] = target: Neu5Ac(a2-3)Gal(b1-3)[Neu5Ac(a2-3)Gal(b1-4)]GlcNAc
Method in brief: as §1

[13] = target: Neu5Ac(a2-3)Gal(b1-3)[Neu5Ac(a2-6)]GalNAc
Method in brief: as §1

[14] = target: Neu5Ac(a2-3)Gal(b1-3)[Neu5Ac(a2-6)]GlcNAc(b1-3)[Fuc(a1-3)[Gal(b1-4)]GlcNAc(b1-6)]Gal(b1-4)Glc
Method in brief: as §1

[15] = target: Neu5Ac(a2-3)Gal(b1-3)]Neu5Ac(a2-3)Gal(b1-4)]GlcNAc
Method in brief: as §1

[16] = target: Neu5Ac(a2-3)Gal(b1-4)Glc
Method in brief: as §1

[17] = target: Neu5Ac(a2-3)Gal(b1-4)GlcNAc
Method in brief: as §1

[18] = target: Neu5Ac(a2-3)Gal(b1-4)GlcNAc(b1-2)Man
Method in brief: as §1

[19] = target: Neu5Ac(a2-3)Gal(b1-4)GlcNAc(b1-2)Man(a1-3)[GlcNAc(b1-2)Man(b1-4)GlcNAc(b1-2)Man(a1-6)]Man(b1-4)GlcNAc(b1-4)GlcNAc
Method in brief: as §1

[20] = target: Neu5Ac(a2-3)Gal(b1-4)GlcNAc(b1-2)Man(a1-3)[GlcNAc(b1-4)][Neu5Ac(a2-3)Gal(b1-4)GlcNAc(b1-2)Man(a1-6)]Man(b1-4)GlcNAc(b1-4)GlcNAc
Method in brief: as §1

[21] = target: Neu5Ac(a2-3)Gal(b1-4)GlcNAc(b1-2)Man(a1-3)[Neu5Ac(a2-3)Gal(b1-4)GlcNAc(b1-2)Man(a1-6)]Man(b1-4)GlcNAc(b1-4)GlcNAc
Method in brief: as §1

[22] = target: Neu5Ac(a2-3)Gal(b1-4)GlcNAc(b1-2)Man(a1-3)[Neu5Ac(a2-3)Gal(b1-4)GlcNAc(b1-2)Man(a1-6)]Man(b1-4)GlcNAc(b1-4)[Fuc(a1-6)]GlcNAc
Method in brief: as §1

[23] = target: Neu5Ac(a2-3)Gal(b1-4)GlcNAc(b1-2)Man(a1-3)[Neu5Ac(a2-6)Gal(b1-4)GlcNAc(b1-2)Man(a1-6)]Man(b1-4)GlcNAc(b1-4)GlcNAc
Method in brief: as §1

[24] = target: Neu5Ac(a2-3)Gal(b1-4)GlcNAc(b1-2)[Neu5Ac(a2-3)Gal(b1-4)GlcNAc(b1-4)]Man(a1-3)[GlcNAc(b1-4)][Neu5Ac(a2-3)Gal(b1-4)GlcNAc(b1-2)[Neu5Ac(a2-3)Gal(b1-4)GlcNAc(b1-6)]Man(a1-6)]Man(b1-4)GlcNAc(b1-4)GlcNAc
Method in brief: as §1

[25] = target: Neu5Ac(a2-3)Gal(b1-4)GlcNAc(b1-2)[Neu5Ac(a2-3)Gal(b1-4)GlcNAc(b1-4)]Man(a1-3)[GlcNAc(b1-4)][Neu5Ac(a2-3)Gal(b1-4)GlcNAc(b1-4)Man(a1-6)]Man(b1-4)GlcNAc(b1-4)GlcNAc
Method in brief: as §1

[26] = target: Neu5Ac(a2-3)Gal(b1-4)GlcNAc(b1-2)[Neu5Ac(a2-3)Gal(b1-4)GlcNAc(b1-6)]Man(a1-6)[Neu5Ac(a2-3)Gal(b1-4)GlcNAc(b1-2)Man(a1-3)]Man(b1-4)GlcNAc(b1-4)GlcNAc
Method in brief: as §1

[27] = target: Neu5Ac(a2-3)Gal(b1-4)GlcNAc(b1-2)[Neu5Ac(a2-3)Gal(b1-4)GlcNAc(b1-6)]Man(a1-6)[Neu5Ac(a2-3)Gal(b1-4)GlcNAc(b1-2)Man(a1-3)][GlcNAc(b1-4)]Man(b1-4)GlcNAc(b1-4)GlcNAc
Method in brief: as §1

[28] = target: Neu5Ac(a2-3)Gal(b1-4)GlcNAc(b1-3)Gal
Method in brief: as §1

[29] = target: Neu5Ac(a2-3)Gal(b1-4)GlcNAc(b1-3)Gal(b1-3)GlcNAc
Method in brief: as §1

[30] = target: Neu5Ac(a2-3)Gal(b1-4)GlcNAc(b1-3)Gal(b1-4)GlcNAc
Method in brief: as §1

[31] = target: Neu5Ac(a2-3)Gal(b1-4)GlcNAc(b1-3)Gal(b1-4)GlcNAc(b1-2)Man(a1-3)[Neu5Ac(a2-3)Gal(b1-4)GlcNAc(b1-3)Gal(b1-4)GlcNAc(b1-2)Man(a1-6)]Man(b1-4)GlcNAc(b1-4)GlcNAc
Method in brief: as §1

[32] = target: Neu5Ac(a2-3)Gal(b1-4)GlcNAc(b1-3)Gal(b1-4)GlcNAc(b1-3)Gal(b1-4)GlcNAc
Method in brief: as §1

[33] = target: Neu5Ac(a2-3)Gal(b1-4)GlcNAc(b1-3)Gal(b1-4)GlcNAc(b1-3)Gal(b1-4)GlcNAc(b1-2)Man(a1-3)[Neu5Ac(a2-3)Gal(b1-4)GlcNAc(b1-3)Gal(b1-4)GlcNAc(b1-3)Gal(b1-4)GlcNAc(b1-2)Man(a1-6)]GalNAc
Method in brief: as §1

[34] = target: Neu5Ac(a2-3)Gal(b1-4)GlcNAc(b1-3)Gal(b1-4)GlcNAc(b1-3)GalNAc
Method in brief: as §1

[35] = target: Neu5Ac(a2-3)Gal(b1-4)GlcNAc(b1-3)Gal(b1-4)GlcNAc(b1-3)[Neu5Ac(a2-3)Gal(b1-4)GlcNAc(b1-3)Gal(b1-4)GlcNAc(b1-6)]GalNAc
Method in brief: as §1

[36] = target: Neu5Ac(a2-3)Gal(b1-4)GlcNAc(b1-3)Gal(b1-4)GlcNAc(b1-6)[Gal(b1-3)]GalNAc
Method in brief: as §1

[37] = target: Neu5Ac(a2-3)Gal(b1-4)GlcNAc(b1-3)Gal(b1-4)[Fuc(a1-3)]GlcNAc
Method in brief: as §1

B1: LlpA1 (Pseudomonas fluorescens), Q4KHC3 (protein)
chain: MGSSHHHHHHSSGLVPRGSHMAWIRYDFTDNGSSVLPARYYMAPNQYLQSPNKRFKLLFQADGNLALYDGAQLAWVADQNTPFTNVSKGNKKDPMMVFMNYGFVLDDPLRGRIWSTTPSDPTMGSREDASLRAFTQVQDDGNIVTVDTIPHWYAPNGRVFTPAVGAAMIIGGTTELVPGQFYSAGEHSLVFQGDGNLVVYGPNSSVIWATYTQNKGGVRCVMQEDGNLVIYAANNGVVWQSGTGGHPGATIRLQANGSFTIVTERPVWARFGYTPTIKPPRVFYPDHKWKTGSYTWNNVF
- glycan array binding signal (z-score) [1]: -0.367
- glycan array binding signal (z-score) [2]: -0.574
- glycan array binding signal (z-score) [3]: -0.453
- glycan array binding signal (z-score) [4]: -0.275
- glycan array binding signal (z-score) [5]: -0.359
- glycan array binding signal (z-score) [6]: -0.204
- glycan array binding signal (z-score) [7]: 0.123
- glycan array binding signal (z-score) [8]: 0.019
- glycan array binding signal (z-score) [9]: -0.488
- glycan array binding signal (z-score) [10]: 0.091
- glycan array binding signal (z-score) [11]: -0.063
- glycan array binding signal (z-score) [12]: -0.689
- glycan array binding signal (z-score) [13]: -0.135
- glycan array binding signal (z-score) [14]: -0.275
- glycan array binding signal (z-score) [15]: 0.082
- glycan array binding signal (z-score) [16]: -0.026
- glycan array binding signal (z-score) [17]: -0.313
- glycan array binding signal (z-score) [18]: 0.311
- glycan array binding signal (z-score) [19]: -1.78
- glycan array binding signal (z-score) [20]: -0.737
- glycan array binding signal (z-score) [21]: 0.192
- glycan array binding signal (z-score) [22]: -0.571
- glycan array binding signal (z-score) [23]: 0.144
- glycan array binding signal (z-score) [24]: -0.283
- glycan array binding signal (z-score) [25]: -0.737
- glycan array binding signal (z-score) [26]: 0.102
- glycan array binding signal (z-score) [27]: 0.052
- glycan array binding signal (z-score) [28]: -0.275
- glycan array binding signal (z-score) [29]: -0.396
- glycan array binding signal (z-score) [30]: 0.295
- glycan array binding signal (z-score) [31]: 0.673
- glycan array binding signal (z-score) [32]: -0.591
- glycan array binding signal (z-score) [33]: 2.75
- glycan array binding signal (z-score) [34]: -0.569
- glycan array binding signal (z-score) [35]: 0.564
- glycan array binding signal (z-score) [36]: 0.659
- glycan array binding signal (z-score) [37]: -0.207
